Assay results: the supplement of paper PMC12823440, “Inhibitors supercharge kinase turnover through native proteolytic circuits” (Nature, 2025)
Counter-ions that a name gives are not always drawn. The list shows a part of the results. The calls rarely recur for the same compound in another form.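 Kinases, fused to nanoluciferase, were expressed in K562 cells; luminescence was measured every 4 h from 2 to 18 h as percent of control (DMSO = 100%, positive control = 0%). A time point is decreased if signal falls significantly (2 sigma). Hits were called by the authors by a rule that is not shown; the count of time points alone does not decide it.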

Amino acid sequences for entries named in this document (tags omitted). A change or cut given only in a name is not applied to a line headed by its entry.
UniProt Q9Y616: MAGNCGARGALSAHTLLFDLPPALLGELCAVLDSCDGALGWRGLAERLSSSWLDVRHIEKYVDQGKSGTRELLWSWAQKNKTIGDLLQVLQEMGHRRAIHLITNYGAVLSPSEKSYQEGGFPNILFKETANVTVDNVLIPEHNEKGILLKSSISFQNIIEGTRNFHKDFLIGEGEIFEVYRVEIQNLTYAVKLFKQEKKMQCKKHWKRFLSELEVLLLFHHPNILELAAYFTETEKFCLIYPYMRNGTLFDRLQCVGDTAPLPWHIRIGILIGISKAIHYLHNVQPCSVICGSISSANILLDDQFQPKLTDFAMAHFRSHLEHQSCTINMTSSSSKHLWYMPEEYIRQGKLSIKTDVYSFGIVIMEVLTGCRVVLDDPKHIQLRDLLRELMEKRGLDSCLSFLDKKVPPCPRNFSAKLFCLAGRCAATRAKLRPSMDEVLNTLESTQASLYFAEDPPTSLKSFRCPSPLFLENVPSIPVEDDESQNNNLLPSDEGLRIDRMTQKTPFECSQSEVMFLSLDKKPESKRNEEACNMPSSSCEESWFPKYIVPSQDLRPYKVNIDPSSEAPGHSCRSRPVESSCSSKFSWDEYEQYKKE
UniProt P23458: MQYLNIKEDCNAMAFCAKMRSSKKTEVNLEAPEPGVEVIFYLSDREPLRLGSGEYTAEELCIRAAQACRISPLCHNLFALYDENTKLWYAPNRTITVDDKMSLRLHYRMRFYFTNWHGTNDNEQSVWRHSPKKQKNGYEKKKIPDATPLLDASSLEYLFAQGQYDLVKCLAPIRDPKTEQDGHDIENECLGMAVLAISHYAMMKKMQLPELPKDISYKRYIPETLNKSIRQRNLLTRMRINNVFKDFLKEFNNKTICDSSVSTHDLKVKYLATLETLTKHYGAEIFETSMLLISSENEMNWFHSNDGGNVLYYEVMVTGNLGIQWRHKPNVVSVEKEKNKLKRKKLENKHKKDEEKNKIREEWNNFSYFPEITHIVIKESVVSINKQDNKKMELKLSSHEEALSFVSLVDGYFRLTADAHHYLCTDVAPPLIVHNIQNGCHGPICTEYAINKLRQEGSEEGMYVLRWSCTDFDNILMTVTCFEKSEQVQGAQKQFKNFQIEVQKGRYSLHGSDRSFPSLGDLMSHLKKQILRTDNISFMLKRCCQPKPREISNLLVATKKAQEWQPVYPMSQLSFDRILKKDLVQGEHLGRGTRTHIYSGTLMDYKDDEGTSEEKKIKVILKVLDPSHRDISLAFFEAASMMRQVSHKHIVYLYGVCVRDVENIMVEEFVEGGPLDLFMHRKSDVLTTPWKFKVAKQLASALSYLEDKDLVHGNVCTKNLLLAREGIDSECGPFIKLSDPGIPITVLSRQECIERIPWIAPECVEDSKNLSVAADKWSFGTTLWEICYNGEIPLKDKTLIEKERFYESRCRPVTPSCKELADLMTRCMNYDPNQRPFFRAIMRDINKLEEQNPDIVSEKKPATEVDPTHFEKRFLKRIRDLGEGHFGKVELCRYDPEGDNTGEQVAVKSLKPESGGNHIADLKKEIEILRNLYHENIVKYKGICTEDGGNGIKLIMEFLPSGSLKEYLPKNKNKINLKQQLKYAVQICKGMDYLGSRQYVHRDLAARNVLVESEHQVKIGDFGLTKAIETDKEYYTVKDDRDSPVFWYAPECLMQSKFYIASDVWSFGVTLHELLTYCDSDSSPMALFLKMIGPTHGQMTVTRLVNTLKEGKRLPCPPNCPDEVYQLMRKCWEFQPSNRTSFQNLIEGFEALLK
UniProt P06239: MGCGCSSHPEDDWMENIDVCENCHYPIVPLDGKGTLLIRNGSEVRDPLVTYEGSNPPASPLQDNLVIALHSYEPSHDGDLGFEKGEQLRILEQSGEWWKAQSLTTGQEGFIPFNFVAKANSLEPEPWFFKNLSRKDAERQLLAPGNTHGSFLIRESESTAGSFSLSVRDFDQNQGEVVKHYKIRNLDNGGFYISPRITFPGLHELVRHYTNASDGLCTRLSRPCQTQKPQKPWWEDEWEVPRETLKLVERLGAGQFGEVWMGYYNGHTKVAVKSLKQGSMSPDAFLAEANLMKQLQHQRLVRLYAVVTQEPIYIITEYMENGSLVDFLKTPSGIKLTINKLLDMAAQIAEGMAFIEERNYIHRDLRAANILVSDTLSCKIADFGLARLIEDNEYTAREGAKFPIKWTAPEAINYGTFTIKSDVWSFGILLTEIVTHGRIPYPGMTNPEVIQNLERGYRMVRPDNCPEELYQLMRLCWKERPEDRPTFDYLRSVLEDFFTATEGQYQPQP
UniProt P53667: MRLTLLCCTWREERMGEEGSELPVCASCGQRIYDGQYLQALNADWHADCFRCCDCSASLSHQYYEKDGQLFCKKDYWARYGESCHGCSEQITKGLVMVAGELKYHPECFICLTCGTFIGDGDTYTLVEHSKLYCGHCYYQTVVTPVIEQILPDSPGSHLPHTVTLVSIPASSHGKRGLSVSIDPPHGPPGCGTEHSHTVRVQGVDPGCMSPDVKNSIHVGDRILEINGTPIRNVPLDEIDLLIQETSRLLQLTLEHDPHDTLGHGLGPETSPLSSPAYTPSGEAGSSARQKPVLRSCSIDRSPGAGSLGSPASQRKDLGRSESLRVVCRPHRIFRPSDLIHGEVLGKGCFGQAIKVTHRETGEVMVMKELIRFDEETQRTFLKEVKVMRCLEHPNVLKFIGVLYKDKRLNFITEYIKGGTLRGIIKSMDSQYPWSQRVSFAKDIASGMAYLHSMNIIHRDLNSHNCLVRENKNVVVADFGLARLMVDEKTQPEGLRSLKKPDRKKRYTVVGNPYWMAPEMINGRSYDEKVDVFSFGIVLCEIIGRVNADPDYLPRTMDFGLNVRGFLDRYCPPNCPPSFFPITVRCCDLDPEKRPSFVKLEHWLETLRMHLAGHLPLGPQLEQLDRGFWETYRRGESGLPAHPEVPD
UniProt P53671: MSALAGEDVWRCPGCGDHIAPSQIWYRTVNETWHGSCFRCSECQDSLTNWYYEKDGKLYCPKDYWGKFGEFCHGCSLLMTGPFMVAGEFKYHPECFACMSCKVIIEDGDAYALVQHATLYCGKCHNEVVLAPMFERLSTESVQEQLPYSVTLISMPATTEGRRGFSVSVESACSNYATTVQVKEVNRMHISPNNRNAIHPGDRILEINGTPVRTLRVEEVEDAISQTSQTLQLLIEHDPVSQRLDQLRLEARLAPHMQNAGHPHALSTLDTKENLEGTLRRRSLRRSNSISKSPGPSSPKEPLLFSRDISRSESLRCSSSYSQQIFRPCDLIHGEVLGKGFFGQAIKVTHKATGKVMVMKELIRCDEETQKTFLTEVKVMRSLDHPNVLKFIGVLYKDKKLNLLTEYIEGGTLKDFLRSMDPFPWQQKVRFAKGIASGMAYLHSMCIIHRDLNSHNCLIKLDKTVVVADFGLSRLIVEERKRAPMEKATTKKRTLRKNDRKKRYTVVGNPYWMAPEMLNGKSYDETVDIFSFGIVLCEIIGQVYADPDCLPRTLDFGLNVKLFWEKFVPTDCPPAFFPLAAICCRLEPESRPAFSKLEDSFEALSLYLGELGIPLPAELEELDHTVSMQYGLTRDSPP
UniProt Q8IWU2: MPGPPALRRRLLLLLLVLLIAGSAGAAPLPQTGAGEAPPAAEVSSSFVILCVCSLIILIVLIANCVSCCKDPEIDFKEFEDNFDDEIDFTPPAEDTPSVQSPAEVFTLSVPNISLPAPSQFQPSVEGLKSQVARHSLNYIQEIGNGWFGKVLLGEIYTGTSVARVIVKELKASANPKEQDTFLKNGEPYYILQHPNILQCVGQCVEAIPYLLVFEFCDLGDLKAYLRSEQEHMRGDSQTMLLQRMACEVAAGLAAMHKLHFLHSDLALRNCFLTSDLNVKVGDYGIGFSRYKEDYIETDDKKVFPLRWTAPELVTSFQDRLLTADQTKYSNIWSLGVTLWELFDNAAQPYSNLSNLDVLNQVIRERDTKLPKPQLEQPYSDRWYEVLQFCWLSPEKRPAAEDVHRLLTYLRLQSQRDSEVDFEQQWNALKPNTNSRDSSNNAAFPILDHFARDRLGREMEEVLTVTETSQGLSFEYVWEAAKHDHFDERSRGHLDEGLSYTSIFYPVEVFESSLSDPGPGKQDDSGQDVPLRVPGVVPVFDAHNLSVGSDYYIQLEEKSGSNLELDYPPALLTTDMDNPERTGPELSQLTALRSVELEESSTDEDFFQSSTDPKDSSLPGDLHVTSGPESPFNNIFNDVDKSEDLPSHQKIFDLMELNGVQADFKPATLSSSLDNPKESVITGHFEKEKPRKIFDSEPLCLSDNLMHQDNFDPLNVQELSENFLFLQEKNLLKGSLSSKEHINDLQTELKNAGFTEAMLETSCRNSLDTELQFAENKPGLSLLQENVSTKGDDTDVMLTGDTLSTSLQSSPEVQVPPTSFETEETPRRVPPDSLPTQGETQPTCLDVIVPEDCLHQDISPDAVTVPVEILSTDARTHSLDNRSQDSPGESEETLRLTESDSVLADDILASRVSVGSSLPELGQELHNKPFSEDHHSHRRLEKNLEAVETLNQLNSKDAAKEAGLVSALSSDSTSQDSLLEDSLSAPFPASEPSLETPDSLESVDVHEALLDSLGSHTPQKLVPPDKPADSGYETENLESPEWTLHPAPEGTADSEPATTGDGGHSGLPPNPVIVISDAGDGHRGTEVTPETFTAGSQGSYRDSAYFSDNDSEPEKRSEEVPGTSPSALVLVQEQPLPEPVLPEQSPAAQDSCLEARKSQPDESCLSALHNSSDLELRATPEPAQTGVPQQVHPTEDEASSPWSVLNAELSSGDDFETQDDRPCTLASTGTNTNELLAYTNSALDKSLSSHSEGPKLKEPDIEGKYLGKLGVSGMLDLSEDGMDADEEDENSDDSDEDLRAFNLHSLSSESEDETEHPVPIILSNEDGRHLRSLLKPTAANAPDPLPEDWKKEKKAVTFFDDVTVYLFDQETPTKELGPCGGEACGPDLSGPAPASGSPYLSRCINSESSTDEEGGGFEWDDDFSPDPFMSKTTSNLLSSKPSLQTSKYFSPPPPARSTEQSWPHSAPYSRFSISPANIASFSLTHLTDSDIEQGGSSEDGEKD
UniProt P07948: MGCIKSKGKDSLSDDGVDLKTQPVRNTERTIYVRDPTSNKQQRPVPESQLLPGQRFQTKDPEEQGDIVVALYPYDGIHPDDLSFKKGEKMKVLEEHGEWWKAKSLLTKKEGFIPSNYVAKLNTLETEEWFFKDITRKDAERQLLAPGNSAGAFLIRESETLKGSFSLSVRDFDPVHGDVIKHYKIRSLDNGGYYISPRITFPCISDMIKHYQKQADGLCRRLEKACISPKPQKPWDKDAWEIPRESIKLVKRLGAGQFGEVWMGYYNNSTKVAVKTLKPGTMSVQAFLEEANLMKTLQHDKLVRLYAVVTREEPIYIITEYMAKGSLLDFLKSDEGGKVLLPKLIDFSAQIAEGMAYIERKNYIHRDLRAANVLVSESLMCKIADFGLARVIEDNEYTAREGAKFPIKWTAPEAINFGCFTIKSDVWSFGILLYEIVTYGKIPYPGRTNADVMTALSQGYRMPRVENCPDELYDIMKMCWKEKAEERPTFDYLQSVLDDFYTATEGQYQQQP
UniProt Q12851: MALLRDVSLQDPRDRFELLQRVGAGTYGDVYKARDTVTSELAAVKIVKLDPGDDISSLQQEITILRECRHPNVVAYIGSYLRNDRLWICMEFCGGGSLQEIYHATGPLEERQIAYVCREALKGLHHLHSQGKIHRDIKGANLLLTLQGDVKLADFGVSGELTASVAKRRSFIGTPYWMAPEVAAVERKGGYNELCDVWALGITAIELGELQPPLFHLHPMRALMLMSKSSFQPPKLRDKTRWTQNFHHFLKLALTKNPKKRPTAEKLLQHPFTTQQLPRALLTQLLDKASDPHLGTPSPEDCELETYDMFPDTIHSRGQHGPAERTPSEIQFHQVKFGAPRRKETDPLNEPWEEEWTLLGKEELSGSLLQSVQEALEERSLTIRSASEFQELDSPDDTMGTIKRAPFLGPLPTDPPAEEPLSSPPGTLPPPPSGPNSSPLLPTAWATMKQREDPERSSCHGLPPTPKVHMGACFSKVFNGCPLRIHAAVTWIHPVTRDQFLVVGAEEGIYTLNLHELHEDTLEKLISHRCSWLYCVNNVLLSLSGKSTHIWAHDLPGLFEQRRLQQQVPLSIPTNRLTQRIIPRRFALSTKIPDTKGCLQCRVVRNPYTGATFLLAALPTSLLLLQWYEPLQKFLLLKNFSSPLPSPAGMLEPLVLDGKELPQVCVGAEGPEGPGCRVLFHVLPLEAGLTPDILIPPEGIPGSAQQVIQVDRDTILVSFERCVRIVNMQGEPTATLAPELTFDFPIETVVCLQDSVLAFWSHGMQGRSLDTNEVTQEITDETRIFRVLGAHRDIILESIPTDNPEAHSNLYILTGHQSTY

Columns and labels:
Experiment in all cases: kinase-Nluc reporter destabilization hit call (1 = scored as downregulated) (binary); higher = compound decreases kinase abundance
Settings in all cases: K562, 2-18 h
[1] = molecular target: IRAK3 (UniProt Q9Y616)
[2] = molecular target: JAK1 (UniProt P23458)
[3] = molecular target: LCK (UniProt P06239)
[4] = molecular target: LIMK1 (UniProt P53667)
[5] = molecular target: LIMK2 (UniProt P53671)
[6] = molecular target: LMTK2 (UniProt Q8IWU2)
[7] = molecular target: LYN (UniProt P07948)
[8] = molecular target: MAP2K1 (UniProt Q02750)
[9] = molecular target: MAP2K2 (UniProt P36507)
[10] = molecular target: MAP4K2 (UniProt Q12851)

Measured: kinase-Nluc reporter destabilization hit call

C[C@H](Nc1cc(-c2cnn(C)c2)cc(Nc2cnccn2)n1)c1ccc(F)cc1 [Ilginatinib]
inactive: [1]; 2.5 µM 0 | [2]; 2.5 µM 0 | [3]; 2.5 µM 0 | [4]; 2.5 µM 0 | [5]; 2.5 µM 0 | [6]; 2.5 µM 0 | [7]; 2.5 µM 0 | [8]; 2.5 µM 0 | [9]; 2.5 µM 0 | [10]; 2.5 µM 0

COc1cc(/C=C/C(=O)O)ccc1O [Ferulic acid]
inactive: [1]; 10 µM 0 | [2]; 10 µM 0 | [3]; 10 µM 0 | [4]; 10 µM 0 | [5]; 10 µM 0 | [6]; 10 µM 0 | [7]; 10 µM 0 | [8]; 10 µM 0 | [9]; 10 µM 0 | [10]; 10 µM 0

COc1cc2nccc(Nc3cc(OC)c(OC)c(OC)c3)c2cc1OC [GAK inhibitor 49 (hydrochloride)]
inactive: [1]; 10 µM 0 | [2]; 10 µM 0 | [3]; 10 µM 0 | [4]; 10 µM 0 | [5]; 10 µM 0 | [6]; 10 µM 0 | [7]; 10 µM 0 | [8]; 10 µM 0 | [9]; 10 µM 0 | [10]; 10 µM 0

Clc1ccc(C2(c3ccc(-c4cn[nH]c4)cc3)CCNCC2)cc1 [AT7867 (dihydrochloride)]
inactive: [1]; 2.5 µM 0 | [2]; 2.5 µM 0 | [3]; 2.5 µM 0 | [4]; 2.5 µM 0 | [5]; 2.5 µM 0 | [6]; 2.5 µM 0 | [7]; 2.5 µM 0 | [8]; 2.5 µM 0 | [9]; 2.5 µM 0 | [10]; 2.5 µM 0

Nc1cncc(-c2cn3ccnc3c(Nc3ccc(N4CCN(C5COC5)CC4)cc3)n2)n1 [Lanraplenib (succinate)]
inactive: [1]; 10 µM 0 | [2]; 10 µM 0 | [3]; 10 µM 0 | [4]; 10 µM 0 | [5]; 10 µM 0 | [6]; 10 µM 0 | [7]; 10 µM 0 | [8]; 10 µM 0 | [9]; 10 µM 0 | [10]; 10 µM 0

CC(=O)N[C@H](Cc1ccc(O)cc1)C(=O)N[C@H](CCCN=C(N)N)C(=O)N[C@H](Cc1ccccc1)C(N)=O
inactive: [1]; 10 µM 0 | [2]; 10 µM 0 | [3]; 10 µM 0 | [4]; 10 µM 0 | [5]; 10 µM 0 | [6]; 10 µM 0 | [7]; 10 µM 0 | [8]; 10 µM 0 | [9]; 10 µM 0 | [10]; 10 µM 0

C=CC(=O)Nc1cc(Nc2nccc(-c3cn(C4CC4)c4ccccc34)n2)c(OC)cc1N(C)CCN(C)C [Almonertinib]
inactive: [1]; 2.5 µM 0 | [2]; 2.5 µM 0 | [3]; 2.5 µM 0 | [4]; 2.5 µM 0 | [5]; 2.5 µM 0 | [6]; 2.5 µM 0 | [7]; 2.5 µM 0 | [8]; 2.5 µM 0 | [9]; 2.5 µM 0 | [10]; 2.5 µM 0

O=C(c1ccc(F)c(F)c1Nc1ccc(I)cc1F)N1CC(O)([C@@H]2CCCCN2)C1 [Cobimetinib]
inactive: [1]; 10 µM 0 | [2]; 10 µM 0 | [3]; 10 µM 0 | [4]; 10 µM 0 | [5]; 10 µM 0 | [6]; 10 µM 0 | [7]; 10 µM 0 | [8]; 10 µM 0 | [9]; 10 µM 0 | [10]; 10 µM 0

CNC(=O)c1ccccc1Nc1cc(Nc2ccc(N3CCOCC3)cc2OC)ncc1C(F)(F)F [PND-1186 (hydrochloride)]
inactive: [1]; 10 µM 0 | [2]; 10 µM 0 | [3]; 10 µM 0 | [4]; 10 µM 0 | [5]; 10 µM 0 | [6]; 10 µM 0 | [7]; 10 µM 0 | [8]; 10 µM 0 | [9]; 10 µM 0 | [10]; 10 µM 0

CN(C)C(=N)NC(=N)N [Metformin (hydrochloride)]
inactive: [1]; 10 µM 0 | [2]; 10 µM 0 | [3]; 10 µM 0 | [4]; 10 µM 0 | [5]; 10 µM 0 | [6]; 10 µM 0 | [7]; 10 µM 0 | [8]; 10 µM 0 | [9]; 10 µM 0 | [10]; 10 µM 0

COc1cc2c(cc1OC)-c1c(C)c3ccc(OC)c(OC)c3c[n+]1CC2 [Dehydrocorydaline (chloride)]
inactive: [1]; 10 µM 0 | [2]; 10 µM 0 | [3]; 10 µM 0 | [4]; 10 µM 0 | [5]; 10 µM 0 | [6]; 10 µM 0 | [7]; 10 µM 0 | [8]; 10 µM 0 | [9]; 10 µM 0 | [10]; 10 µM 0

COc1cc2nccc(Oc3ccc(NC(=O)C4(C(=O)Nc5ccc(F)cc5)CC4)cc3)c2cc1OC [Cabozantinib]
inactive: [1]; 2.5 µM 0 | [2]; 2.5 µM 0 | [3]; 2.5 µM 0 | [4]; 2.5 µM 0 | [5]; 2.5 µM 0 | [6]; 2.5 µM 0 | [7]; 2.5 µM 0 | [8]; 2.5 µM 0 | [9]; 2.5 µM 0 | [10]; 2.5 µM 0

Quoted from the entries so far (two entries):
C=CC(=O)Nc1cc(Nc2nccc(-c3cn(C4CC4)c4ccccc34)n2)c(OC)cc1N(C)CCN(C)C [Almonertinib]
inactive: [1]; 2.5 µM 0 | [2]; 2.5 µM 0 | [3]; 2.5 µM 0 | [4]; 2.5 µM 0 | [5]; 2.5 µM 0 | [6]; 2.5 µM 0 | [7]; 2.5 µM 0 | [8]; 2.5 µM 0 | [9]; 2.5 µM 0 | [10]; 2.5 µM 0

O=C(c1ccc(F)c(F)c1Nc1ccc(I)cc1F)N1CC(O)([C@@H]2CCCCN2)C1 [Cobimetinib]
inactive: [1]; 10 µM 0 | [2]; 10 µM 0 | [3]; 10 µM 0 | [4]; 10 µM 0 | [5]; 10 µM 0 | [6]; 10 µM 0 | [7]; 10 µM 0 | [8]; 10 µM 0 | [9]; 10 µM 0 | [10]; 10 µM 0

Following part

CN(C)C(=O)c1cc2cnc(Nc3ccc(N4CCNCC4)cn3)nc2n1C1CCCC1 [Ribociclib hydrochloride]
inactive: [1]; 2.5 µM 0 | [2]; 2.5 µM 0 | [3]; 2.5 µM 0 | [4]; 2.5 µM 0 | [5]; 2.5 µM 0 | [6]; 2.5 µM 0 | [7]; 2.5 µM 0 | [8]; 2.5 µM 0 | [9]; 2.5 µM 0 | [10]; 2.5 µM 0

CN(C)C(=O)c1cc2cnc(Nc3ccc(N4CCNCC4)cn3)nc2n1C1CCCC1 [Ribociclib succinate]
inactive: [1]; 10 µM 0 | [2]; 10 µM 0 | [3]; 10 µM 0 | [4]; 10 µM 0 | [5]; 10 µM 0 | [6]; 10 µM 0 | [7]; 10 µM 0 | [8]; 10 µM 0 | [9]; 10 µM 0 | [10]; 10 µM 0

CNC(=O)c1ccc(Nc2ncc(C(F)(F)F)c(NCc3nccnc3N(C)S(C)(=O)=O)n2)cc1 [Defactinib]
inactive: [1]; 10 µM 0 | [2]; 10 µM 0 | [3]; 10 µM 0 | [4]; 10 µM 0 | [5]; 10 µM 0 | [6]; 10 µM 0 | [7]; 10 µM 0 | [8]; 10 µM 0 | [9]; 10 µM 0 | [10]; 10 µM 0

CN1CCCN(C(=O)c2cccc(-c3ccc(/C=C4/C(=O)Nc5ccc(Cl)cc54)o3)c2)CC1
inactive: [1]; 2.5 µM 0 | [2]; 2.5 µM 0 | [3]; 2.5 µM 0 | [4]; 2.5 µM 0 | [5]; 2.5 µM 0 | [6]; 2.5 µM 0 | [7]; 2.5 µM 0 | [8]; 2.5 µM 0 | [9]; 2.5 µM 0 | [10]; 2.5 µM 0

O=C(Nc1cnn2ccc(N3CCC[C@@H]3c3cc(F)ccc3F)nc12)N1CC[C@H](O)C1 [Larotrectinib sulfate]
inactive: [1]; 10 µM 0 | [2]; 10 µM 0 | [3]; 10 µM 0 | [4]; 10 µM 0 | [5]; 10 µM 0 | [6]; 10 µM 0 | [7]; 10 µM 0 | [8]; 10 µM 0 | [9]; 10 µM 0 | [10]; 10 µM 0

CCCC(=O)Nc1ncnc2c1ncn2[C@@H]1O[C@@H]2COP(=O)(O)O[C@H]2[C@H]1OC(=O)CCC [Bucladesine (sodium)]
inactive: [1]; 10 µM 0 | [2]; 10 µM 0 | [3]; 10 µM 0 | [4]; 10 µM 0 | [5]; 10 µM 0 | [6]; 10 µM 0 | [7]; 10 µM 0 | [8]; 10 µM 0 | [9]; 10 µM 0 | [10]; 10 µM 0

CC(C)Oc1ccc(-c2nn([C@@H](C)c3oc4ccc(F)cc4c(=O)c3-c3cccc(F)c3)c3ncnc(N)c23)cc1F [Umbralisib (hydrochloride)]
inactive: [1]; 2.5 µM 0 | [2]; 2.5 µM 0 | [3]; 2.5 µM 0 | [4]; 2.5 µM 0 | [5]; 2.5 µM 0 | [6]; 2.5 µM 0 | [7]; 2.5 µM 0 | [8]; 2.5 µM 0 | [9]; 2.5 µM 0 | [10]; 2.5 µM 0

COc1cc2nccc(Nc3cc(OC)c(OC)c(OC)c3)c2cc1OC [GAK inhibitor 49]
inactive: [1]; 10 µM 0 | [2]; 10 µM 0 | [3]; 10 µM 0 | [4]; 10 µM 0 | [5]; 10 µM 0 | [6]; 10 µM 0 | [7]; 10 µM 0 | [8]; 10 µM 0 | [9]; 10 µM 0 | [10]; 10 µM 0

N=C(N)NC(=O)c1nc(Cl)c(N)nc1N [Amiloride hydrochloride dihydrate]
inactive: [1]; 10 µM 0 | [2]; 10 µM 0 | [3]; 10 µM 0 | [4]; 10 µM 0 | [5]; 10 µM 0 | [6]; 10 µM 0 | [7]; 10 µM 0 | [8]; 10 µM 0 | [9]; 10 µM 0 | [10]; 10 µM 0

Cc1ccc(NC(=O)c2ccc(CN3CCN(C)CC3)cc2)cc1Nc1nc(-c2cccnc2)cs1 [Masitinib (mesylate)]
inactive: [1]; 2.5 µM 0 | [2]; 2.5 µM 0 | [3]; 2.5 µM 0 | [4]; 2.5 µM 0 | [5]; 2.5 µM 0 | [6]; 2.5 µM 0 | [7]; 2.5 µM 0 | [8]; 2.5 µM 0 | [9]; 2.5 µM 0 | [10]; 2.5 µM 0

Cc1cccc(-c2[nH]c(CNc3ccccc3F)nc2-c2ccc3ncnn3c2)n1 [Vactosertib (Hydrochloride)]
inactive: [1]; 2.5 µM 0 | [2]; 2.5 µM 0 | [3]; 2.5 µM 0 | [4]; 2.5 µM 0 | [5]; 2.5 µM 0 | [6]; 2.5 µM 0 | [7]; 2.5 µM 0 | [8]; 2.5 µM 0 | [9]; 2.5 µM 0 | [10]; 2.5 µM 0

C#Cc1cccc(Nc2ncnc3cc4c(cc23)OCCOCCOCCO4)c1 [Icotinib]
inactive: [1]; 10 µM 0 | [2]; 10 µM 0 | [3]; 10 µM 0 | [4]; 10 µM 0 | [5]; 10 µM 0 | [6]; 10 µM 0 | [7]; 10 µM 0 | [8]; 10 µM 0 | [9]; 10 µM 0 | [10]; 10 µM 0

C=CC(=O)N1CCN(c2ncnc3c(F)c(-c4c(O)cccc4F)c(Cl)cc23)CC1
inactive: [1]; 2.5 µM 0 | [1]; 10 µM 0 | [2]; 2.5 µM 0 | [2]; 10 µM 0 | [3]; 2.5 µM 0 | [3]; 10 µM 0 | [4]; 2.5 µM 0 | [4]; 10 µM 0 | [5]; 2.5 µM 0 | [5]; 10 µM 0 | [6]; 2.5 µM 0 | [6]; 10 µM 0 | [7]; 2.5 µM 0 | [7]; 10 µM 0 | [8]; 2.5 µM 0 | [8]; 10 µM 0 | [9]; 2.5 µM 0 | [9]; 10 µM 0 | [10]; 2.5 µM 0 | [10]; 10 µM 0

Oc1cccc(-c2nc(N3CCOCC3)c3oc4ncccc4c3n2)c1 [PI-103 (Hydrochloride)]
inactive: [1]; 2.5 µM 0 | [2]; 2.5 µM 0 | [3]; 2.5 µM 0 | [4]; 2.5 µM 0 | [5]; 2.5 µM 0 | [6]; 2.5 µM 0 | [7]; 2.5 µM 0 | [8]; 2.5 µM 0 | [9]; 2.5 µM 0 | [10]; 2.5 µM 0

CCN(CC)Cc1ccc(OC)c(-c2cc3c(-c4ccc(C(=O)O)c(C(C)C)c4)ccnc3[nH]2)c1
inactive: [1]; 2.5 µM 0 | [1]; 10 µM 0 | [2]; 2.5 µM 0 | [2]; 10 µM 0 | [3]; 2.5 µM 0 | [3]; 10 µM 0 | [4]; 2.5 µM 0 | [4]; 10 µM 0 | [5]; 2.5 µM 0 | [5]; 10 µM 0 | [6]; 2.5 µM 0 | [6]; 10 µM 0 | [7]; 2.5 µM 0 | [7]; 10 µM 0 | [8]; 2.5 µM 0 | [8]; 10 µM 0 | [9]; 2.5 µM 0 | [9]; 10 µM 0 | [10]; 2.5 µM 0 | [10]; 10 µM 0
